Results: PMC9158300

These substances were tested against T1, Os02g0817500 protein (miR5075 target protein) (rice (Oryza sativa L.)) (UniProt Q40648) (assay: two-hybrid; Os02g0817500 as bait (pGBKT7, yeast strain Y2H, nuclear system; also pBT3-N, strain NMY51, membrane system); libraries from embryos of artificially aged and germinated 'Kasalath' and 'Nipponbare' seeds; growth on SD/-Leu/-Trp/-His/-Ade/X-alpha-gal and SD/-Leu/-Trp/-His/-Ade/X-gal plates; empty pGADT7 and pPR3-N as negative controls).
T1 sequence: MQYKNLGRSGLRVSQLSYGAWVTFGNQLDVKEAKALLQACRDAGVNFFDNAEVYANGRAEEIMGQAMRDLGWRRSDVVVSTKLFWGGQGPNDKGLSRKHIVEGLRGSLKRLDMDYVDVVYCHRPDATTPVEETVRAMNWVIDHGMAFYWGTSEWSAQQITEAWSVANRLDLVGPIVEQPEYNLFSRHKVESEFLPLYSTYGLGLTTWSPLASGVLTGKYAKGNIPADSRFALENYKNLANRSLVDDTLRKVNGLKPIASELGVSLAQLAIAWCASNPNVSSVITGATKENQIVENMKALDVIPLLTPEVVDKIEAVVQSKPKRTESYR

| Substance | binding |
| --- | --- |
| protein encoded by Os07g0633100 (rice (Oryza sativa L.)) | binds |
| protein encoded by Os08g0295100 (rice (Oryza sativa L.)) | binds |
| protein encoded by Os02g0697300 (miR1848 target gene) (rice (Oryza sativa L.)) | no binding |
| OsPER1 (rice (Oryza sativa L.)) | binds |

No constants are given. Whether binding was seen depends on the method and setting. A result given as binding can be weak or reduced; the word gives no strength.
